Laboratory results taken from patent publication US20190389957A1 (SINGAPORE HEALTH SERVICES PTE, published 2019).
Results are given in words; binding and its absence hold for the method and conditions named. Some binding calls cover weakened binding; strength is not graded here.

T1: IL-11Rα as used in the Biacore kinetics of Example 14 (UniProt Q14626)
T1 sequence (looked up): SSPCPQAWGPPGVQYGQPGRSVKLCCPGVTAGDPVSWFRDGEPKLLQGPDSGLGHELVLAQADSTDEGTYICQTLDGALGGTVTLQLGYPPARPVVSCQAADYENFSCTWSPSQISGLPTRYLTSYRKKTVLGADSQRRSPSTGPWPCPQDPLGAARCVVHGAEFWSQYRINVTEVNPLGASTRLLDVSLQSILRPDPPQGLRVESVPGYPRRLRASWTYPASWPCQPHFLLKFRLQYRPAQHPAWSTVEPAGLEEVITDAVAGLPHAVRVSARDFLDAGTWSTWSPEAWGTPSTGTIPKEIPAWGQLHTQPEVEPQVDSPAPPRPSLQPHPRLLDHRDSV

B1: Humanised BSO-9A7 variant VH3/VL3 (antibody, V domains shown)
VH: QVQLVQSGAEVKKPGASVKVSCKASGYTFTNYWMHWLRQRPGQGLEWIGNIGPSDSKTHYNQKFKDRATLTVDKSTSTAYMELSSLRSEDTAVYYCARGDYVLFTYWGQGTLVTVSS
VL: DIVLTQSPATLSLSPGERATLSCRASQSISNNLHWYQQKPGQAPRLLIKYASQSISGIPARFSGSGSGTDFTLTISSLEPEDFAVYFCQQSYSWPLTFGQGTKLEIK
notes: Variable domains only
B2: Humanised BSO-9A7 variant VH4/VL3 (antibody, V domains shown)
VH: QVQLVQSGAEVKKPGASVKVSCKASGYTFTNYWMHWLRQRPGQGLEWIGNIGPSDSKTHYNQKFKDRVTMTVDKSTSTAYMELSSLRSEDTAVYYCARGDYVLFTYWGQGTLVTVSS
VL: DIVLTQSPATLSLSPGERATLSCRASQSISNNLHWYQQKPGQAPRLLIKYASQSISGIPARFSGSGSGTDFTLTISSLEPEDFAVYFCQQSYSWPLTFGQGTKLEIK
notes: Variable domains only
B3: Humanised BSO-9A7 variant VH4/VL2 (antibody, V domains shown)
VH: QVQLVQSGAEVKKPGASVKVSCKASGYTFTNYWMHWLRQRPGQGLEWIGNIGPSDSKTHYNQKFKDRVTMTVDKSTSTAYMELSSLRSEDTAVYYCARGDYVLFTYWGQGTLVTVSS
VL: DIVLTQSPATLSLSPGERATLSCRASQSISNNLHWYQQKSGQAPRLLIKYASQSISGIPARFSGSGSGTDFTLTISSLETEDFAVYFCQQSYSWPLTFGQGTKLEIK
notes: Variable domains only
B4: Humanised BSO-9A7 variant VH4/VL4 (antibody, V domains shown)
VH: QVQLVQSGAEVKKPGASVKVSCKASGYTFTNYWMHWLRQRPGQGLEWIGNIGPSDSKTHYNQKFKDRVTMTVDKSTSTAYMELSSLRSEDTAVYYCARGDYVLFTYWGQGTLVTVSS
VL: DIVLTQSPATLSLSPGERATLSCRASQSISNNLHWYQQKPGQAPRLLIKYASQSISGIPARFSGSGSGTDFTLTISSLEPEDFAVYYCQQSYSWPLTFGQGTKLEIK
notes: Variable domains only; also called printed once as VH4/VH4
B5: Humanised BSO-9A7 variant VH3/VL2 (antibody, V domains shown)
VH: QVQLVQSGAEVKKPGASVKVSCKASGYTFTNYWMHWLRQRPGQGLEWIGNIGPSDSKTHYNQKFKDRATLTVDKSTSTAYMELSSLRSEDTAVYYCARGDYVLFTYWGQGTLVTVSS
VL: DIVLTQSPATLSLSPGERATLSCRASQSISNNLHWYQQKSGQAPRLLIKYASQSISGIPARFSGSGSGTDFTLTISSLETEDFAVYFCQQSYSWPLTFGQGTKLEIK
notes: T0003 heads the columns 'Heavy chain' and 'Light chain', but the entries are variable domains
B6: Humanised BSO-9A7 variant VH3/VL4 (antibody, V domains shown)
VH: QVQLVQSGAEVKKPGASVKVSCKASGYTFTNYWMHWLRQRPGQGLEWIGNIGPSDSKTHYNQKFKDRATLTVDKSTSTAYMELSSLRSEDTAVYYCARGDYVLFTYWGQGTLVTVSS
VL: DIVLTQSPATLSLSPGERATLSCRASQSISNNLHWYQQKPGQAPRLLIKYASQSISGIPARFSGSGSGTDFTLTISSLEPEDFAVYYCQQSYSWPLTFGQGTKLEIK
notes: Variable domains only

Each binder was assayed against T1, IL-11Rα as used in the Biacore kinetics of Example 14 (assay: SPR (Biacore T200), multi-cycle kinetics).

binding, binds:
B1
B2
B3
B4
B5
B6
